Measured values from paper PMC12611138.

Assays:
Assay in all cases: co-IP; N. crassa protein extracts (2 mg protein) of QA-induced qa-Myc transformants; 5 uL Myc antibody 4 h at 4°C, Sepharose beads 1 h at 4°C, three washes with extraction buffer; Western blot of the immunoprecipitates
[1] = target: Myc-RTF-1(24-221aa) (Neurospora crassa)
[2] = target: Myc-RTF-1(3-221aa) (Neurospora crassa)
[3] = target: Myc-RTF-1^E132K (Neurospora crassa)
[4] = target: Myc-tagged RTF-1 (Neurospora crassa)

binding [1]: binds
binding [2]: binds
binding [3]: no binding
binding [4]: binds
B1: BRE-1 (endogenous) (enzyme, UniProt Q7S304 1-724)
chain: MPVATSPSAVPRPTTVKMEDRKRPAANADDVAPPSKRQAVNGTSKSKDDSNDSREEAWIEEYQKGAIYRQMLEYKRSKVDLEHRLQEAEKSAAFHDDHLRVIKYWLSQLTQELELIVEGSLKSIALKPVDSNWVSSLAFKDSKEFRQHLDDIKKPVILKVESLLNKLASSRGEVKPDVAQLEAQVKSLLANQKELAVKIDRLQAENATLSEQYDTATLKVIKAERKLDRVRSAQVQKLEQQALANSTTRQTTNDENGTSSIAENGDGAEYKTKYKEAIAVANKQKEQIESLLAEIKTLQEENASFKIKKEGISEEDYARTDVFKQFKAQNEDLIKRINNLEAVNKQFREDAEKLRAERTSYRATLEQEAQALTSDLEDQIQQKDQDLTRIRSARDELLAELAMRKASQEQEKTASAHLNELVEAMTDRVTQLESELERLRPTEDVAKAAPTDDLSTLSAEELREKFAKLERDYEAINKELPALEKSYRKAMGIAHKKVMDFTALEERVAILTAEKSKADQKYFAARKDMDIRIAEIRTLRGQNSKSSEIISQLKDVETQHRALITTLEKQIADLKQSNITIVTESKKLESLSSEATRRADSVKSQIENLQNLVKSKDTAGRELKEKAIDKEQEAEKLKVRLDKVSSERDKWKTKCQSNSTEEEEMLRNLVLCSVCRSNFKNTILKGCGHVFCNECVDNRLANRMRKCPSCNKAFDRSDAMPAHL

Results are given in words; binding and its absence hold for the method and conditions named. Binding seen in cells or lysates may run through a third protein. For some of these results: Binding can be weak; no strength is given.
